# Assay results from article PMC7673371, “Real-Time Parallel Artificial Membrane Permeability Assay Based on Supramolecular Fluorescent Artificial Receptors” (Frontiers in Chemistry, 2020).
# Tested on: MDAP∙CB8 receptor
# Test: Screening of the fluorescence response of the MDAP∙CB8 receptor in homogeneous solution
# Assay type: binding
# Details: 0.1 mmol/L analyte (20 equiv.), 5 μmol/L MDAP∙CB8
row,Structure (SMILES),fluorescence response / associative binding toward MDAP∙CB8 reporter pair
1,OC12CC3CC(CC(C3)C1)C2 [1-adamantanol],no or weak associative binding; also recorded: insignificant fluorescence response/binding
2,NC12CC3CC(CC(C3)C1)C2 [1-adamantylamine],no or weak associative binding; also recorded: insignificant fluorescence response/binding
3,NS(=O)(=O)c1cc(C(=O)O)c(NCc2ccco2)cc1Cl [furosemide],no or weak associative binding
4,COc1cc(NC(C)CCCN)c2ncccc2c1 (stereo not drawn) [primaquine],no or weak associative binding
5,C=C[C@H]1C[N@@]2CC[C@H]1C[C@H]2[C@H](O)c1ccnc2ccc(OC)cc12 [quinine],no or weak associative binding
6,CN(C)CCc1c[nH]c2ccc(C[C@H]3COC(=O)N3)cc12 [zolmitriptan],no or weak associative binding

# Entries after “also recorded” stand apart in the source; their conditions may differ. Some entries repeat one wording, which the source may state once for all of them.
